Results from PMC3983030, “Ras GTPase-Like Protein MglA, a Controller of Bacterial Social-Motility in Myxobacteria, Has Evolved to Control Bacterial Predation by Bdellovibrio” (PLoS Genetics, 2014).
No constants are given. Whether binding was seen depends on the method and setting. A result given as binding can be weak or reduced; the word gives no strength. Sequences can lack the tags named with a protein.

B1: pUT18C-Bd2492 (Bd2492 fused to the T18 fragment of adenylate cyclase) (protein, UniProt Q6MKB3 1-353)
chain: MSTYIELEIQNLLNQGSDQNIDLAEVATRLVSSIESSPDHFTLDNITALSRFLIQSGNELVLVEFVLRHLENESFPIPWPYFLEALSAFSEELDEKSVRALIDGIEEDGAQEEASRSLALRQTIQSLGEWRSNRKYKIHKDYLNNKRLLLDQLITLRTQQLYEQEKSLLARLQKLYPGDSDIRREVNEHKQRYALEILSRRTPRSRGVKTEDFSPKDPETEQALQVLMQSMHEHAETDPSMAFDFAIAAYMLESYEDALSLLSFSDESETLIWFRLEVLLKCRRFVELLTDLAKVEVVFAHEPETFFATAYLRAQALWGLGQKHTAIEVMEGLLAARPHYRAASALLSIWGGQ
B2: MglA (Bd3734) co-expressed in E. coli from plasmid pD2492N/3734 (natural protein, Bdellovibrio bacteriovorus HD100, UniProt Q6MH29 1-197, looked up)
chain: MSFINYNAKEIHCKVVYYGPSLGGKTTNIQWVYQKTAEDQKSKLVALNTDIERTLFFDFLPLNVGDIRGFKTRFHLYTVPGQVVYDASRKLILKGLDGVIFVADSQIERMDENLESLRNLERNLEQQGYDIREIPLIMQYNKRDLPNVASLAELRSALNPYNAPEIEGCASEGRGVFESLKTVSKSIINVLKGGTTL
notes: MglA (Bd3734) of Bdellovibrio bacteriovorus HD100; No tag is named on MglA in this construct; source: E. coli, heterologously co-expressed with Bd2492-His6 from plasmid pD2492N/3734

Target: pKT25 Bd3125 (CdgA fused to the T25 fragment of adenylate cyclase) (Bdellovibrio bacteriovorus HD100) (UniProt Q6MIM9)
Assay: two-hybrid; bacterial two-hybrid with T18 and T25 fragments of adenylate cyclase (pUT18C, pKT25, pKNT25); spot tests and beta-galactosidase assay

| Binder | binding |
| --- | --- |
| B1 | binds |
| B2 | no binding |
